Results on 2 molecules are retold here after PMC10144829.

Chains of the proteins cited; added tags and fusions are not shown.
UniProt P04406: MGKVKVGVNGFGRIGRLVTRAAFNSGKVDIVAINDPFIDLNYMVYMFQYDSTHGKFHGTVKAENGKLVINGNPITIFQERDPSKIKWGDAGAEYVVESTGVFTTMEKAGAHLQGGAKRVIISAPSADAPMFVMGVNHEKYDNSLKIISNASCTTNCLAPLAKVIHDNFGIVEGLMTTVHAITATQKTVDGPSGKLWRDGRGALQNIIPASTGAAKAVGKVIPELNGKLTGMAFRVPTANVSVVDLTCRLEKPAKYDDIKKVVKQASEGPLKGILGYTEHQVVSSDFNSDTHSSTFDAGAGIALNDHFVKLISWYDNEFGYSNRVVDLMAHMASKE

Results are given in words; binding and its absence hold for the method and conditions named. In cells and extracts the contact can be indirect.

The assay concerns the target GAPDH (human (endogenous in RD)) (UniProt P04406). The assay is described as follows: co-IP.

B1: human scavenger receptor class B, member 2 (hSCARB2) (receptor, UniProt Q14108 1-478)
chain: MGRCCFYTAGTLSLLLLVTSVTLLVARVFQKAVDQSIEKKIVLRNGTEAFDSWEKPPLPVYTQFYFFNVTNPEEILRGETPRVEEVGPYTYRELRNKANIQFGDNGTTISAVSNKAYVFERDQSVGDPKIDLIRTLNIPVLTVIEWSQVHFLREIIEAMLKAYQQKLFVTHTVDELLWGYKDEILSLIHVFRPDISPYFGLFYEKNGTNDGDYVFLTGEDSYLNFTKIVEWNGKTSLDWWITDKCNMINGTDGDSFHPLITKDEVLYVFPSDFCRSVYITFSDYESVQGLPAFRYKVPAEILANTSDNAGFCIPEGNCLGSGVLNVSICKNGAPIIMSFPHFYQADERFVSAIEGMHPNQEDHETFVDINPLTGIILKAAKRFQINIYVKKLDDFVETGDIRTMVFPVMYLNESVHIDKETASRLKSMINTTLIITNIPYIIMALGVFFGLVFTWLACKGQGSMDEGTADERAPLIRT
With B1, the binding result was “no binding”.

B2: KREMEN1 (KRM1) (receptor, UniProt Q96MU8 20-473)
chain: ARPAPSPGLGPECFTANGADYRGTQNWTALQGGKPCLFWNETFQHPYNTLKYPNGEGGLGEHNYCRNPDGDVSPWCYVAEHEDGVYWKYCEIPACQMPGNLGCYKDHGNPPPLTGTSKTSNKLTIQTCISFCRSQRFKFAGMESGYACFCGNNPDYWKYGEAASTECNSVCFGDHTQPCGGDGRIILFDTLVGACGGNYSAMSSVVYSPDFPDTYATGRVCYWTIRVPGASHIHFSFPLFDIRDSADMVELLDGYTHRVLARFHGRSRPPLSFNVSLDFVILYFFSDRINQAQGFAVLYQAVKEELPQERPAVNQTVAEVITEQANLSVSAARSSKVLYVITTSPSHPPQTVPGSNSWAPPMGAGSHRVEGWTVYGLATLLILTVTAIVAKILLHVTFKSHRVPASGDLRDCHQPGTSGEIWSIFYKPSTSISIFKKKLKGQSQQDDRNPLVSD
As to B2, the binding result is listed as “no binding”.
